Key:
petunia flowers = test: Labeling of VOCs after feeding deuterium labeled phenylalanine and benzoic acid to petunia flowers (GC-MS); type: in vivo, Petunia hybrida; details: percentage of labeling, volatiles collected 4 hours, means ± SE, n=3; for Labeling of VOCs after feeding ^2H8-Phenylalanine (%): 50 mM fed to excised limbs of 2-day-old petunia flowers for 2 hours; for Labeling of VOCs after feeding ^2H5-Benzoic acid (%): 100 mM fed to excised limbs of 2-day-old petunia flowers for 2 hours, n.d., not detected
[1] = tested on: pds-bsα-bsβ VIGS petunia flowers; test: Emission of volatiles from pds-bsα-bsβ VIGS petunia flowers; type: in vivo, Petunia hybrida; details: 2-day-old VIGS flowers
Method: Petunia hybrida cv. Mitchell diploid (W115, Ball Seed Co., Oxford, Canada) plants were grown under standard greenhouse condition with a light period from 6:00 to 21:00 hour. To link the simultaneous downregulation of PhBSα and PhBSβ6 genes via virus induced gene silencing (VIGS) to the silencing of a marker gene, a previously generated pTRV2-PDS construct containing a 300 bp fragment of Nicotiana benthamiana Phytoene Desaturase (PDS) (CDS nucleotides 580˜879; SEQ ID NO: 11) was used (deposited with the National Center for Biotechnology Information (NCBI) GenBank and having the accession number DQ469932.1 (accepted Dec. 4, 2007)). […]
Petunia flower volatiles were collected by a closed-loop stripping method and analyzed by gas chromatography mass spectrometry (GC-MS) as described in Qian et al., Completion of the cytosolic post-chorismate phenylalanine biosynthetic pathway in plants, Nature Communications 10: 15 (2019), with minor modifications. […] The extracts were pooled together and concentrated to about 200 μL under a mild stream of nitrogen gas, and samples were analyzed on an Agilent 7890B-5977B gas chromatography mass spectrometry (GC-MS) system (Agilent Technologies, Inc., Santa Clara, CA) using an analytical method translated from an established method with the Agilent 6890N-5975B GC-MS system as previously described. […]

SMILES	Labeling of VOCs after feeding ^2H8-Phenylalanine (%) (petunia flowers)	Labeling of VOCs after feeding ^2H5-Benzoic acid (%) (petunia flowers)	change of emission in pds-bsα-bsβ flowers relative to control [1]	increase of emission in pds-bsα-bsβ flowers relative to control ([1]; volatiles collected 20:00 to 21:00) [folds]
O=C(OCc1ccccc1)c1ccccc1 [Alcohol moiety of Benzylbenzoate (91), Benzylbenzoate]	10.80 ± 2.31	21.86 ± 4.98	–	–
O=Cc1ccccc1 [Benzaldehyde (D5, 111), Benzaldehyde]	22.51 ± 5.45	23.03 ± 2.20	–	–
O=C(OCc1ccccc1)c1ccccc1 [Benzoyl moiety of Benzylbenzoate (105), Benzylbenzoate]	7.76 ± 1.12	22.88 ± 5.54	–	–
OCc1ccccc1 [Benzylalcohol (D5, 113), Benzylalcohol]	12.87 ± 3.36	12.37 ± 1.03	–	–
O=C(OCc1ccccc1)c1ccccc1 [Benzylbenzoate (D5, 217), Benzylbenzoate]	11.92 ± 1.90	24.33 ± 4.09	–	–
O=C(OCc1ccccc1)c1ccccc1 [Benzylbenzoate (D10, 222), Benzylbenzoate]	2.88 ± 0.64	9.97 ± 3.53	–	–
C=CCc1ccc(O)c(OC)c1 [Eugenol (D5, 169), Eugenol]	5.79 ± 1.84	–	–	–
CC=Cc1ccc(O)c(OC)c1 [Isoeugenol (D5, 169), Isoeugenol]	4.94 ± 0.94	–	No statistically significant changes	–
O=CCc1ccccc1 [Phenylacetaldehyde (D7 + D8, 97 + 98), Phenylacetaldehyde]	29.76 ± 8.26	–	–	–
COc1cc(C=O)ccc1O [Vanillin (D4, 156), Vanillin]	4.41 ± 1.05	–	–	–
O=C(OCCc1ccccc1)c1ccccc1 [phenylethylbenzoate]	–	–	–	3.07

Reference: patent US20250034601A1, “HETERODIMERIC BENZALDEHYDE SYNTHASE, METHODS OF PRODUCING, AND USES THEREOF” (Purdue Research Foundation, priority 2021, published 2025)
